Laboratory results published in PubChem BioAssay AID1671190 (National Center for Advancing Translational Sciences (NCATS), 2021).
About 6,100 (1.1%) of roughly 580,000 compounds were called active. Inconclusive means that the source gave no clear call. Such entries were picked first, then a sample of the others. The call rests on the fitted dose curve; in most records, active means well fitted inhibition curve with a large enough effect; inconclusive means small, poorly fitted or top-dose-only effect, or another doubt; inactive means no such curve, though single readings can be large or run the other way. Where the call is inconclusive, the potency comes from a doubtful curve fit.

Protein sequences, listed by entry. Tags and fused reporters are not part of them. Lines headed by an entry give the natural chain unless they say otherwise; changes in a name come on top.
UniProt P18054: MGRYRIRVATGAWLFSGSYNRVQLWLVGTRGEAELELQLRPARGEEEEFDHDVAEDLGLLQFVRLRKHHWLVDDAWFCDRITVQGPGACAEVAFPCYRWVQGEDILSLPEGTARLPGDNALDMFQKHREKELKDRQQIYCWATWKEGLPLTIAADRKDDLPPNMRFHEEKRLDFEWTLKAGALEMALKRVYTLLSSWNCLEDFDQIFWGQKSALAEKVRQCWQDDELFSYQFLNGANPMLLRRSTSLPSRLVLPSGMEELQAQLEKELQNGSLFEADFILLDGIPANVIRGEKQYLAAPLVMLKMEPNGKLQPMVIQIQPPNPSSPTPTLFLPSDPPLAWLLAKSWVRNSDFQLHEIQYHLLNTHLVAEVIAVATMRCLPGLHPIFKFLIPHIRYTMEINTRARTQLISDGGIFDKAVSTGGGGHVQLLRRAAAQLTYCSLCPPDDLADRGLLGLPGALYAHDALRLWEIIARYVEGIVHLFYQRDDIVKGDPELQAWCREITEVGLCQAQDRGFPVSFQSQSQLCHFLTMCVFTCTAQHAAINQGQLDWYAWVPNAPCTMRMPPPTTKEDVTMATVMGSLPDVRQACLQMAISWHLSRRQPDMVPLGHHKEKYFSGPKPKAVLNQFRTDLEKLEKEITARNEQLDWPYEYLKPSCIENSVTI

Molecular target: Polyunsaturated fatty acid lipoxygenase ALOX12 (Homo sapiens) (UniProt P18054)
Assay: Primary qHTS assay for inhibitors of human arachidonate 12S-lipoxygenase (ALOX12): Round 2
Conditions: purified 12hLO, xylenol orange hydroperoxide absorbance; activity change, negative = inhibition: at 108 µM (top of the series) unless noted
Method in brief: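 Purified human 12hLO (150 nM final) in 25 mM Hepes, 0.01% Triton X-100, pH 7.0 was preincubated 15 min at room temperature with compound. Then 40 uM arachidonic acid was added, 30 min. Hydroperoxide was read by Fe-XO absorbance ratio 573/405 nm.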
On the % scale 0 is the no-effect control and ±100 the full control effect; potency means the concentration at half of the fitted maximal effect.

| SMILES | activity change, negative = inhibition | Potency |
| --- | --- | --- |
| Cc1cc(-n2c(C)cc(C(=O)CSc3nncn3C)c2C)no1 | inactive: -13.6% |  |
| CC(C)c1ccc(O)c(N)c1 |  | inconclusive: 100 µM [inhibitor, single point] |
| Cc1cc(Br)cn2c(Cc3ccccc3)c(-c3ccc(Cl)cc3)nc12 | inactive: 0% |  |
| O=C(O)c1cccc(NC(=O)c2cn(-c3ccccc3)nc2-c2cc3ccccc3o2)c1 |  | inconclusive: 56.2 µM [inhibitor, partial curve, poor fit] |
| COc1ccccc1/C=C/C=N/n1c(-c2ccc(F)cc2)n[nH]c1=S |  | inconclusive: 11.2 µM [inhibitor, full curve, poor fit] |
| C/C(=N\NC(=O)c1cc(-c2ccccc2C)nc2ccccc12)c1cccnc1 | inactive: 16.4% |  |
| O=C(Nc1nc(-c2cccs2)c(C(=O)C(F)(F)F)s1)c1ccccc1 |  | inconclusive: 50.1 µM [inhibitor, partial curve, poor fit] |
| CC1CCC2(CC1)NC(=O)N(CC(=O)NC(C)C)C2=O (stereo not drawn) | inactive: -0.34% |  |
| C[S+](=O)([O-])N1CCC(c2nnc3n2CCNC3)CC1 |  | inconclusive: 11.2 µM [inhibitor, full curve, poor fit] |
| CC1=C(C(=O)OCc2ccc3c(c2)OCO3)C(c2ccc(Cl)cc2Cl)CC(=O)N1 (stereo not drawn) | inactive: -13.3% |  |
| CC1CCN(CC[C@@H]2CC[C@H](O)[C@@H](C(=O)Nc3ccccc3)O2)CC1 | inactive: -18.5% [at 176 µM] |  |
| c1ccc2c(c1)oc1c(NCC3CCCO3)ncnc12 (stereo not drawn) |  | inconclusive: 2 µM [inhibitor, full curve, poor fit] |
| Cc1ccccc1C(=O)NNC(=S)NC(=O)c1ccccc1 |  | inconclusive: 89.1 µM [inhibitor, partial curve, poor fit] |
| COc1ccc2nc(C)cc(SCC(=O)N/N=C/c3ccc(O)c(O)c3)c2c1 |  | inconclusive: 17.8 µM [inhibitor, partial curve] |
| c1ccc(-c2nc(-c3cnccn3)no2)c(OC2CCNC2)c1 (stereo not drawn) |  | inconclusive: 8.91 µM [inhibitor, partial curve, poor fit] |
| O=C(CCNC(=O)c1ccccc1)Nc1cccnc1 | inactive: 228% |  |
| N#Cc1c(N)n[nH]c1CCCNC(=O)c1cc2ccccc2cc1O |  | inconclusive: 79.4 µM [inhibitor, single point] |
| CCCc1c(CC)c(=N)c2ccccc2n1C |  | active: 5.01 µM |
| CN(CCOC(=O)CCCc1ccccc1)C1CN(Cc2cn(Cc3ccccc3F)nn2)S(=O)(=O)C1 (stereo not drawn) | inactive: -7.19% |  |
| O=[N+]([O-])c1ccccc1/C=C/CN1CCC(O)CC1 |  | inconclusive: 5.01 µM [inhibitor, full curve] |
| CC1=C[C@@H](CN2CCN(c3cnccn3)CC2)[C@H](C(C)C)C[C@H]1Cc1nnc(-c2ccccc2)o1 | inactive: -2.69% |  |
| COc1ccc(C(=O)Nc2nc3c(s2)C[C@@H]2[C@](C)(CO)[C@H](O)CC[C@@]2(C)[C@@H]3CC(=O)N2CCC(C)CC2)cc1 |  | inconclusive: 39.8 µM [inhibitor, partial curve] |
| COCCNC(=O)c1cc2c3ccccc3n(C)c2s1 |  | inconclusive: 35.5 µM [inhibitor, partial curve] |

Laid out differently: results already given.
SMILES | activity change, negative = inhibition | Potency
Cc1cc(Br)cn2c(Cc3ccccc3)c(-c3ccc(Cl)cc3)nc12 | inactive: 0% | 
O=C(O)c1cccc(NC(=O)c2cn(-c3ccccc3)nc2-c2cc3ccccc3o2)c1 |  | inconclusive: 56.2 µM [inhibitor, partial curve, poor fit]

The list goes on.

| SMILES | activity change, negative = inhibition | Potency |
| --- | --- | --- |
| Nc1ccccc1OCc1ccccc1 | inactive: -53.4% |  |
| N=c1nnc(-c2ccc(Cl)cc2)cn1O |  | inconclusive: 44.7 µM [inhibitor, partial curve, poor fit] |
| CC(NC(=O)c1ccco1)C(=O)Nc1nc(-c2cccc3ccccc23)cs1 (stereo not drawn) |  | inconclusive: 39.8 µM [inhibitor, partial curve, poor fit] |
| Cn1c(SCC(=O)c2ccccc2)nnc1-c1cccc(N)c1 | inactive: 0% |  |
| Cc1cccc(NC(=O)CN2CCN(C(=O)CNC(=O)c3ccc(-c4ccccc4)cc3)CC2)c1C | inactive: -25.1% |  |
| Cc1cc(C(=O)N/N=C/c2cc(Cl)cc([N+](=O)[O-])c2O)c2ccccc2n1 |  | inconclusive: 44.7 µM [inhibitor, partial curve] |
| CCSc1nc2sc3c(c2c(=O)n1-c1ccccc1)CCN(C(C)C)C3 |  | inconclusive: 7.08 µM [inhibitor, partial curve, poor fit] |
| CCOC(=O)c1ccc(S(=O)(=O)N2CCC(C(=O)NCCc3ccccn3)CC2)cc1 | inactive: 2.07% |  |
| O=[N+]([O-])c1cc(C(F)(F)F)ccc1N1CCN(CCOc2cccc(Cl)c2)CC1 | inactive: 12% |  |
| COc1ccc(C(=O)Oc2c(Sc3ccc(C)cc3)c(C)nn2C(C)(C)C)c(OC)c1 |  | inconclusive: 126 µM [inhibitor, partial curve, poor fit] |
| CN1C(=O)CC[C@]2(C(=O)NCc3cccc(C(F)(F)F)c3)CCCC[C@@H]12 |  | inconclusive: 5.62 µM [inhibitor, partial curve, poor fit] |
| CCCc1nc2c3ccccc3ccn2c1Cc1ccc(OC)cc1C |  | inconclusive: 44.7 µM [inhibitor, partial curve, poor fit] |
| O=[N+]([O-])c1cccc(/C=N/Nc2cc(N3CCOCC3)ncn2)c1 | inactive: 20% |  |
| C=Cc1ccc(Cn2c(C(=O)O)c(CNCc3cc(OC)ccc3OC)c3ccc(C)cc32)cc1 |  | inconclusive: 89.1 µM [inhibitor, partial curve, poor fit] |
| CCC1(N2CCN(C(=O)Nc3cccc(F)c3C)CC2)CCN(C(=O)C(C)C)C1 (stereo not drawn) |  | inconclusive: 3.55 µM [inhibitor, full curve] |
| Cn1nc(C(=O)OCC(=O)Nc2ccc(Cl)c(C(F)(F)F)c2)c2ccccc2c1=O |  | inconclusive: 89.1 µM [inhibitor, single point] |
| COc1ccc(-c2nc(C)c(CCNC(=O)c3cccc(C)c3)s2)cc1OC | inactive: -14.1% |  |
| COc1ccccc1CNc1ncnc2ccc(-c3ccccc3CN(C)C)cc12 |  | inconclusive: 44.7 µM [inhibitor, partial curve, poor fit] |
| COCCNC(=S)Nc1cc(S(=O)(=O)N2CCOCC2)ccc1N1CCCCC1 |  | active: 31.6 µM |
| COc1ccc(CN2CCN(C(=O)c3ccco3)CC2)cc1OC |  | inconclusive: 0.794 µM [inhibitor, full curve] |
| CCOC(=O)c1cc2c(ccn2C)n1CC(=O)N1CCC(Cc2ccccc2)CC1 |  | inconclusive: 15.8 µM [inhibitor, full curve, poor fit] |
| CCn1c(=O)c2c(cc(C)n2C)n(CC(=O)Nc2ccc(F)cc2F)c1=O | inactive: 5.14% |  |
| O=C(NNc1ccccc1)C(CCO)C(=O)NNc1ccccc1 |  | inconclusive: 39.8 µM [inhibitor, partial curve] |

Single records (already shown):
CC1=C[C@@H](CN2CCN(c3cnccn3)CC2)[C@H](C(C)C)C[C@H]1Cc1nnc(-c2ccccc2)o1 in the list: activity change, negative = inhibition: inactive: -2.69%
CCCc1nc2c3ccccc3ccn2c1Cc1ccc(OC)cc1C in the list: Potency: inconclusive: 44.7 µM [inhibitor, partial curve, poor fit]

Carrying on:

| SMILES | activity change, negative = inhibition | Potency |
| --- | --- | --- |
| C=CCn1c(NCc2ccc(C)cc2)nc2c1c(=O)[nH]c(=O)n2C | inactive: -4.12% |  |
| COCCNC(=O)[C@@H](C)C1CC[C@@]2(C)CC[C@H](NC(=O)c3ccc(C#N)cc3)[C@@H](C)[C@@H]2[C@H]1O (stereo partly drawn) |  | inconclusive: 8.91 µM [inhibitor, full curve] |
| O=C(c1ccccc1)N1CCC(c2nc(-c3ccc(S(=O)(=O)NCC4CCCO4)cc3)no2)CC1 (stereo not drawn) | inactive: -5.38% |  |
| COC(=O)C1=C(c2ccccc2)c2ccccc2S(=O)(=O)N1CC(=O)Nc1cc(C)ccc1C |  | inconclusive: 100 µM [inhibitor, single point] |
| Cc1ccc(/C=C(/C#N)S(C)(=O)=O)c(C)c1 |  | inconclusive: 100 µM [inhibitor, single point] |
| FC(F)(F)C(Oc1nc(N2CCOCC2)nc(N2CCOCC2)n1)C(F)(F)F |  | inconclusive: 44.7 µM [inhibitor, single point] |
| O=C(CCc1c[nH]c2ccccc12)NCc1ccc(Cl)cc1Cl |  | inconclusive: 50.1 µM [inhibitor, partial curve, poor fit] |
| COc1ccc(CNc2nc(NC(C)=O)nn2-c2ccccc2)cc1 |  | inconclusive: 44.7 µM [inhibitor, partial curve, poor fit] |
| O=C(c1ccc(Cn2c(=S)[nH]c3ccc(Br)cc3c2=O)cc1)N1CCN(C2CCCCC2)CC1 |  | inconclusive: 44.7 µM [inhibitor, partial curve, poor fit] |
| Clc1ccc2c(NN=C3CCCC3)ccnc2c1 |  | active: 7.94 µM |
| COc1ccc(CN(C)CC(=O)NC(=O)Nc2ccccc2F)cc1 | inactive: 377% |  |
| Cn1c(NC(=O)c2ccco2)c(-c2cccc(C(F)(F)F)c2)c(=O)c2ccccc21 | inactive: -3.26% |  |
| C/C(=N\NC(=O)c1cccc(S(=O)(=O)N2CCOCC2)c1)c1ccc(C)cc1 |  | inconclusive: 1.41 µM [inhibitor, full curve, poor fit] |
| COc1ccccc1CN(Cc1cc2c(C)ccc(C)c2[nH]c1=O)Cc1nnnn1Cc1ccco1 |  | inconclusive: 11.2 µM [inhibitor, partial curve, poor fit] |
| CC1(C)Cc2ccccc2C(C(=O)c2ccccc2)=N1 | inactive: 0% |  |
| O=C(NCC1(Cn2cccn2)CC1)c1ccc(C2CCNC2)cc1 (stereo not drawn) | inactive: 11.5% |  |
| CCOC(=O)c1sc(S(C)(=O)=O)c2c1CC(C)(C)C/C2=N/O |  | inconclusive: 126 µM [inhibitor, partial curve, poor fit] |
| CCOCCn1ccc2c(OCC(=O)Nc3cc(C(F)(F)F)ccc3Cl)cccc2c1=O |  | inconclusive: 141 µM [inhibitor, partial curve, poor fit] |
| CN1CCN(CC(=O)Nc2ccccc2Sc2ccccc2)CC1 |  | inconclusive: 2 µM [inhibitor, full curve, poor fit] |
| N#Cc1cc([N+](=O)[O-])ccc1NC(=O)COC(=O)C1(c2ccccc2F)CCCC1 |  | inconclusive: 17.8 µM [inhibitor, full curve, poor fit] |
| COc1cccc(NC(=O)c2ccc3c(c2)CCC3)c1 | inactive: -21.3% |  |
| Cn1c(=O)c2c(nc(NCc3ccco3)n2Cc2ccccc2Br)n(C)c1=O | inactive: -1.35% |  |
